Measurements as given in publication PMC6947699.
Read-outs that look alike come from different tables or passages of the source. These are yes or no findings as the source states them, for the method shown. In cells and extracts the contact can be indirect. Some entries that bind do so weakly or less than the wild type. Sequences can lack the tags named with a protein. Blank lines part the entries; values can stand above or below the molecule they belong to.

Sequences of proteins named here, by UniProt entry; tags and fusion partners are left off.
UniProt P35226: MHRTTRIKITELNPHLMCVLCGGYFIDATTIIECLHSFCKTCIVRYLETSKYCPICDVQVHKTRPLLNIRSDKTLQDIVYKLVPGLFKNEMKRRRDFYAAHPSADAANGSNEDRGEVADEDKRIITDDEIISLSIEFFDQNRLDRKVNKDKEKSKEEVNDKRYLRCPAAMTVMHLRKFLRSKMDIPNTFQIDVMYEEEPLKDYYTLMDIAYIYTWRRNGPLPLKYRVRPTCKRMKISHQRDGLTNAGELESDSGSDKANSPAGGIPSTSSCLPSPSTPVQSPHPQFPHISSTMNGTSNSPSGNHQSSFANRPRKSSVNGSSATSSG

Columns and labels:
Assay in all cases: co-IP; co-immunoprecipitation from lysates of breast cancer cells (SUM159; cells overexpressing IL1R2 or sIL1R2), Western blot
[1] = target: T1, Ubiquitin-specific protease 15 (USP15) in SUM159 cells (human (in human SUM159 cells; endogenous or HA-tagged not told)) (UniProt Q9Y4E8)
T1 sequence: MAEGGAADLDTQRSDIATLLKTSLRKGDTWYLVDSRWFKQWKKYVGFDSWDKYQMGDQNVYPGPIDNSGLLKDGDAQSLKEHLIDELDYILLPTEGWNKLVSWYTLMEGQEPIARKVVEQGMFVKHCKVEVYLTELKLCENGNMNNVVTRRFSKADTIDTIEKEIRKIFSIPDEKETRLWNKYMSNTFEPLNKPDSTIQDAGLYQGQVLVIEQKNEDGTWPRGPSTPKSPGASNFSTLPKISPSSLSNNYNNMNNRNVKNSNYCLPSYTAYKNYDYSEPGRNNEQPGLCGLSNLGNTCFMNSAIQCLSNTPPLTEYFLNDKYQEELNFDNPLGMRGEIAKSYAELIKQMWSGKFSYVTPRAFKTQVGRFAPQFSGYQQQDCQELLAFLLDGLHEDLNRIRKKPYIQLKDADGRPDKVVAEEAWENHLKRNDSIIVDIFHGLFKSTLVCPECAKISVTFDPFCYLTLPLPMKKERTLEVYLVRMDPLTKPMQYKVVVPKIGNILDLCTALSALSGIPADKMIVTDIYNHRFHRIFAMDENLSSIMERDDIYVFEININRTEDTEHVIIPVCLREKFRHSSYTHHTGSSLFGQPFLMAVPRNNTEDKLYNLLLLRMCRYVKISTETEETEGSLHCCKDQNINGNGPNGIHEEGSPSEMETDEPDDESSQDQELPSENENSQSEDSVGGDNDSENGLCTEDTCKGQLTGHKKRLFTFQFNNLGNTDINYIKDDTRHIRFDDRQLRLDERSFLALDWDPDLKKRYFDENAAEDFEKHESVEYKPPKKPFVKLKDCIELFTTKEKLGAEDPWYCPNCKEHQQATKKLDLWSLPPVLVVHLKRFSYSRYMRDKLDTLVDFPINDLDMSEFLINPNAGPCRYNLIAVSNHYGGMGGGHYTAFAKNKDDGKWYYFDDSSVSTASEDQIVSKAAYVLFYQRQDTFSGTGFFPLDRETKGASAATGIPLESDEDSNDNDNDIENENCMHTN

[2] = target: BMI1 protein in breast cancer cells (human (in human SUM159 cells; endogenous or HA-tagged not told)) (UniProt P35226)
[3] = target: T1, Ubiquitin-specific protease 15 (USP15) in SUM159 cells (human (in human SUM159 cells; endogenous or HA-tagged not told)); remark: listed apart in the source

- binding [1]: binds
Molecule: BMI1 protein in breast cancer cells (from UniProt P35226 1-326)

- binding [2]: no binding
B1: IL1R2 ectodomain (soluble IL1R2) with a C-terminal FLAG tag (domain or fragment, UniProt P27930-1 14-343)
chain: FTLQPAAHTGAARSCRFRGRHYKREFRLEGEPVALRCPQVPYWLWASVSPRINLTWHKNDSARTVPGEEETRMWAQDGALWLLPALQEDSGTYVCTTRNASYCDKMSIELRVFENTDAFLPFISYPQILTLSTSGVLVCPDLSEFTRDKTDVKIQWYKDSLLLDKDNEKFLSVRGTTHLLVHDVALEDAGYYRCVLTFAHEGQQYNITRSIELRIKKKKEETIPVIISPLKTISASLGSRLTIPCKVFLGTGTPLTTMLWWTANDTHIESAYPGGRVTEGPRQEYSENNENYIEVPLIFDPVTREDLHMDFKCVVHNTLSFQTLRTTVKE

- binding [3]: binds
B2: Full-length interleukin-1 receptor type 2 (IL1R2) with a C-terminal FLAG tag (receptor, UniProt P27930-1 14-398)
chain: FTLQPAAHTGAARSCRFRGRHYKREFRLEGEPVALRCPQVPYWLWASVSPRINLTWHKNDSARTVPGEEETRMWAQDGALWLLPALQEDSGTYVCTTRNASYCDKMSIELRVFENTDAFLPFISYPQILTLSTSGVLVCPDLSEFTRDKTDVKIQWYKDSLLLDKDNEKFLSVRGTTHLLVHDVALEDAGYYRCVLTFAHEGQQYNITRSIELRIKKKKEETIPVIISPLKTISASLGSRLTIPCKVFLGTGTPLTTMLWWTANDTHIESAYPGGRVTEGPRQEYSENNENYIEVPLIFDPVTREDLHMDFKCVVHNTLSFQTLRTTVKEASSTFSWGIVLAPLSLAFLVLGGIWMHRRCKHRTGKADGLTVLWPHHQDFQSYPK
